In this assay the target is cYFP-tagged DnaK (E. coli HSP70) (E. coli) (UniProt P0A6Y8). Put plainly: split reporter; nYFP and cYFP fusions co-expressed from one pRSF-Duet1 construct in E. coli cells; YFP fluorescence seen by fluorescence microscopy.

Chains of the proteins cited; added tags and fusions are not shown.
UniProt P0A6Y8: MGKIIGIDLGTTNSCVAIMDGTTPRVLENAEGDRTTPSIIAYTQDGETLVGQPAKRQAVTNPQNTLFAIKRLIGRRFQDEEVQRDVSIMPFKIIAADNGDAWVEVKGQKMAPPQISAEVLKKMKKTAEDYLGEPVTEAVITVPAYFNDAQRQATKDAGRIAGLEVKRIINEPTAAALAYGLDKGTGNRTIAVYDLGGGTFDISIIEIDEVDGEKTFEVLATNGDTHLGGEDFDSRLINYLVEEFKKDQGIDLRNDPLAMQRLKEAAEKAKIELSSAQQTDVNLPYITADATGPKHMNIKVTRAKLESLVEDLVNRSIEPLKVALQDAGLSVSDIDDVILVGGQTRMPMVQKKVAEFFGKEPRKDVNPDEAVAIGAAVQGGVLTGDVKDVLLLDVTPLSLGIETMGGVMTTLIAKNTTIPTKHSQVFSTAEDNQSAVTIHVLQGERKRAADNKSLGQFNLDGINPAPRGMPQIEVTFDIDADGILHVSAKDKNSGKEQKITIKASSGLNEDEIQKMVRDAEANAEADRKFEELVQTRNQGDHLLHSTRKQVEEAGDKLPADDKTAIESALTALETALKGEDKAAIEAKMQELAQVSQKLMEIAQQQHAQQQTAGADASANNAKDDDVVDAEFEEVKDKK
UniProt P08622: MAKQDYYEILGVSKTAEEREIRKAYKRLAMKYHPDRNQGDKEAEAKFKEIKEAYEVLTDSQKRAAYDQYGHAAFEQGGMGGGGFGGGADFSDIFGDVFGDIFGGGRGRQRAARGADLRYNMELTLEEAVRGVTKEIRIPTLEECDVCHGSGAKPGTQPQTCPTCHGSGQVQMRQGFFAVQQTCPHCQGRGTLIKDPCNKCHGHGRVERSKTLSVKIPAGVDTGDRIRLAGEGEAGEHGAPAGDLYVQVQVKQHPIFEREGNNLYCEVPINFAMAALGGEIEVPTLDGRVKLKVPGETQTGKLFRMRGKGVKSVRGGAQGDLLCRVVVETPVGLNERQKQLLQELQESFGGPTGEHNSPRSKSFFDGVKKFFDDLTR

These are yes or no findings as the source states them, for the method shown. In cells and extracts the contact can be indirect. Some binding calls cover weakened binding; strength is not graded here.

With “nYFP-tagged DnaJ (E. coli HSP40) (from UniProt P08622 1-376)”, the binding entry is reported as “binds”.

The record behind these values is paper PMC10604809.
